Source: PMC11006773
Results are given in words; binding and its absence hold for the method and conditions named. Binding seen in cells or lysates may run through a third protein. Some entries that bind do so weakly or less than the wild type. Values belong to the molecule of their own block, whether it stands above or below them.

The chains behind the UniProt entries cited, without tags or fusion partners.
UniProt Q91YI4: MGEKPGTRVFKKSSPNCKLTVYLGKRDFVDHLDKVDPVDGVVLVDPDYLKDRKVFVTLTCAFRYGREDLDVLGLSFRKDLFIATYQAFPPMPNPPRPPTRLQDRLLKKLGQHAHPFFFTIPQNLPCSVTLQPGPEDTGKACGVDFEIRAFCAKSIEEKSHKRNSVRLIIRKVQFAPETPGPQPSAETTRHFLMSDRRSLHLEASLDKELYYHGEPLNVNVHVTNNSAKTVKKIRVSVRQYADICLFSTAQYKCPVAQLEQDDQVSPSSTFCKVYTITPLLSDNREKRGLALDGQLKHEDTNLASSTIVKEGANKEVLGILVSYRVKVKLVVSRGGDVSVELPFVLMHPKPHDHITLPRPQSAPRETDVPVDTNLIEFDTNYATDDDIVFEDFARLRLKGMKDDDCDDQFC
UniProt Q08857: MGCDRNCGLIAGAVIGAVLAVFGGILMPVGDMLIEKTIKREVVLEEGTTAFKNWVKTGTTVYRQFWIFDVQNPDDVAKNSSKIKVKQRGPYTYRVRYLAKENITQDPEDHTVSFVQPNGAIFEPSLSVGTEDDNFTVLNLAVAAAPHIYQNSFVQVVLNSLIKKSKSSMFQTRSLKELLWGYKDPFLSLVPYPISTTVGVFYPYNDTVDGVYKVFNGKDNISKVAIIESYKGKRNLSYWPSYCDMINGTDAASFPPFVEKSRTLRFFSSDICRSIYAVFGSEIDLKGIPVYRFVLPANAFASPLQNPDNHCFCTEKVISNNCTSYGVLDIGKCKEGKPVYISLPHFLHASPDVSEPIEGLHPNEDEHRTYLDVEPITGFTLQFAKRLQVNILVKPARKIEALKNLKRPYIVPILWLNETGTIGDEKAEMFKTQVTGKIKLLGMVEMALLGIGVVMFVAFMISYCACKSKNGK

Experiments:
[1] = target: T1, GPR120 (mouse (endogenous in RAW 264.7)) (UniProt Q7TMA4); assay: co-IP; RAW 264.7 cells treated with NKS3 (50 µM for 2 h) and then LPS (10 ng/ml for 24 h); lysates immunoprecipitated with anti-GPR120 antibodies, CD36 and GPR120 detected by Western blotting
T1 sequence: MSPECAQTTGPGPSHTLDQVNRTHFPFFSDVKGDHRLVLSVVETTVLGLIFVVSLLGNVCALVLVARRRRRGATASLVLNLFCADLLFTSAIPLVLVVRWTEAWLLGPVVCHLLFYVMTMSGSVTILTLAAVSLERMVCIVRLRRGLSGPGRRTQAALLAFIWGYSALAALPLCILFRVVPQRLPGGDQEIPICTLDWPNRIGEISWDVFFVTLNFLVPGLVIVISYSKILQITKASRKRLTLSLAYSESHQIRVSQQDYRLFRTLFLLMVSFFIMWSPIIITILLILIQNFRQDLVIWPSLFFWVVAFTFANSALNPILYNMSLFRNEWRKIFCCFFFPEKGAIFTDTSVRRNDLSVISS

[2] = target: T1, GPR120 (mouse (endogenous in RAW 264.7)); assay: proximity ligation; RAW 264.7 cells with NKS3, fixed in 4% PFA, permeabilised with 0.2% Triton; anti-CD36 and anti-GPR120 primary antibodies, Duolink In Situ Red kit; non-treated cells and cells with CD36 or GPR120 knocked down by siRNA
[3] = target: β-arrestin2 (mouse (endogenous in RAW 264.7)) (UniProt Q91YI4); assay: co-IP; RAW 264.7 cells treated with NKS3 and LPS; lysates immunoprecipitated for β-arrestin, TAB1 detected by Western blotting

binding [1]: binds
binding [2]: binds
Molecule: CD36 (from UniProt Q08857 1-472) (receptor)

binding [3]: binds
B1: TAB1 (protein, UniProt Q8CF89 1-502)
chain: MAAQRRSLLQSEQQPSWTDDLPLCHLSGVGSASNRSYSADGKGTESHPPEDNWLKFRSENNCFLYGVFNGYDGNRVTNFVAQRLSAELLLGQLNTEHTEADVRRVLLQAFDVVERSFLESIDDALAEKASLQSQLPEGVPQHQLPPQYQKILERLKALEREISGGAMAVVAVLLNSKLYVANVGTNRALLCKSTVDGLQVTQLNMDHTTENEDELFRLSQLGLDAGKIKQMGVICGQESTRRIGDYKVKYGYTDIDLLSAAKSKPIIAEPEIHGAQPLDGVTGFLVLMSEGLYKALEAAHGPGQANQEIAAMIDTEFAKQTSLDAVAQAVVDRVKRIHSDTFASGGERAKFCPRHEDMTLLVRNFGYPLGEMSQPTPTPAPGGRVYPVSVPYSSAQSTSKTSVTLSLVMPSQGQMVNGSHSASTLDEATPTLTNQSPTLTLQSTNTHTQSSSSSSDGGLFRSRPAHSLPPGEDGRVEPYVDFAEFYRLWSVDHGEQSVMTAP
